{"source": "PubChem BioAssay AID504774 (Drosophila RNAi Screening Center, 2011)", "purpose": "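Genes required for cells to withstand methyl methanesulphonate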 (primary screen)", "cell system": "Drosophila Kc167 cells", "knock-down reagent": "long dsRNA against Drosophila genes, about 0.25 µg dsRNA per well", "duration": "about 6 days: 3 days knock-down, then 3 days with or without MMS", "challenge": "methyl methanesulphonate 0.004% (w/v) for 3 days after knock-down", "measured": "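ATP-dependent luminescence as a measure of live cells in MMS-exposed wells, quantile normalised within each plate, with replicate values also given as a mean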", "scale": "mean viability with MMS and viability with MMS: higher = more surviving cells after MMS", "note": "In all, the deposit lists about 23,000 reagents; shown is an unselected part of those with a known target gene and a result. 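Values are quantile-normalised luminescence on an arbitrary scale; higher means more cells surviving MMS.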 Further read-outs or replicates are left out here."}
{"predicted target": "CG43996", "amplicon": "DRSC19456", "mean viability with MMS": 3.45e6, "viability with MMS, replicate 1": 3.91e6}
{"predicted target": "CG43996", "amplicon": "DRSC19457", "mean viability with MMS": 3.50e6, "viability with MMS, replicate 1": 4.01e6}
{"predicted target": "CG4502", "amplicon": "DRSC02755", "mean viability with MMS": 3.39e6, "viability with MMS, replicate 1": 3.56e6}
{"predicted target": "CG4502", "amplicon": "DRSC23237", "mean viability with MMS": 3.48e6, "viability with MMS, replicate 1": 3.98e6}
{"predicted target": "wash (washout)", "amplicon": "DRSC06302", "mean viability with MMS": 3.62e6, "viability with MMS, replicate 1": 3.90e6}
{"predicted target": "sinah (sina homologue)", "amplicon": "DRSC09910", "mean viability with MMS": 3.49e6, "viability with MMS, replicate 1": 3.95e6}
{"predicted target": "sinah (sina homologue)", "amplicon": "DRSC22181", "mean viability with MMS": 3.33e6, "viability with MMS, replicate 1": 3.88e6}
{"predicted target": "CG17698", "amplicon": "DRSC11907", "mean viability with MMS": 3.59e6, "viability with MMS, replicate 1": 4.01e6}
{"predicted target": "Dtd (D-aminoacyl-tRNA deacylase)", "amplicon": "DRSC15362", "mean viability with MMS": 3.61e6, "viability with MMS, replicate 1": 4.04e6}
{"predicted target": "Smg5 (Smg5 nonsense mediated mRNA decay factor)", "amplicon": "DRSC03124", "mean viability with MMS": 3.37e6, "viability with MMS, replicate 1": 3.60e6}
{"predicted target": "CG5078", "amplicon": "DRSC11762", "mean viability with MMS": 3.59e6, "viability with MMS, replicate 1": 4.09e6}
{"predicted target": "dpr14 (defective proboscis extension response 14)", "amplicon": "DRSC17767", "mean viability with MMS": 3.65e6, "viability with MMS, replicate 1": 4.55e6}
{"predicted target": "lncRNA:CR32368 (long non-coding RNA:CR32368)", "amplicon": "DRSC08899", "mean viability with MMS": 3.44e6, "viability with MMS, replicate 1": 3.91e6}
{"predicted target": "CG31933", "amplicon": "DRSC00457", "mean viability with MMS": 3.46e6, "viability with MMS, replicate 1": 3.84e6}
{"predicted target": "CG3473", "amplicon": "DRSC01915", "mean viability with MMS": 3.53e6, "viability with MMS, replicate 1": 4.01e6}
{"predicted target": "Gr33a (Gustatory receptor 33a)", "amplicon": "DRSC02589", "mean viability with MMS": 3.58e6, "viability with MMS, replicate 1": 4.13e6}
{"predicted target": "CG12521", "amplicon": "DRSC09893", "mean viability with MMS": 3.56e6, "viability with MMS, replicate 1": 4.05e6}
{"predicted target": "CG34204", "amplicon": "DRSC03897", "mean viability with MMS": 3.47e6, "viability with MMS, replicate 1": 3.91e6}
{"predicted target": "Mrtf (Myocardin-related transcription factor)", "amplicon": "DRSC08263", "mean viability with MMS": 3.09e6, "viability with MMS, replicate 1": 3.60e6}
{"predicted target": "Mrtf (Myocardin-related transcription factor)", "amplicon": "DRSC08410", "mean viability with MMS": 3.29e6, "viability with MMS, replicate 1": 3.73e6}
{"predicted target": "Mrtf (Myocardin-related transcription factor)", "amplicon": "DRSC08411", "mean viability with MMS": 3.53e6, "viability with MMS, replicate 1": 4.02e6}
{"predicted target": "Mrtf (Myocardin-related transcription factor)", "amplicon": "DRSC23194", "mean viability with MMS": 3.73e6, "viability with MMS, replicate 1": 4.20e6}
{"predicted target": "mRpS30 (mitochondrial ribosomal protein S30)", "amplicon": "DRSC20107", "mean viability with MMS": 3.56e6, "viability with MMS, replicate 1": 3.82e6}
{"predicted target": "Trf (TBP-related factor)", "amplicon": "DRSC03462", "mean viability with MMS": 3.76e6, "viability with MMS, replicate 1": 4.42e6}

Part of the list above, showing only “viability with MMS, replicate 1”.
dpr14 (defective proboscis extension response 14) [DRSC17767]: 4.55e6
lncRNA:CR32368 (long non-coding RNA:CR32368) [DRSC08899]: 3.91e6
CG31933 [DRSC00457]: 3.84e6
